Out of some 360,000 compounds screened, about 7,500 (2.1%) were called active. The shares of active, inactive and inconclusive entries below differ from those in the screen. Calls follow the shape of the dose curve; as a rule, active = well fitted inhibition curve with a large enough effect; inconclusive = small, poorly fitted or top-dose-only effect, or effect the other way; inactive = flat fitted curve, though single readings scatter. A potency beside an inconclusive call is a rough fit, not a confirmed value.
experiment: Nrf2 qHTS screen for inhibitors; conditions: A549 ARE-Fluc reporter, luciferase luminescence, 18-24 h; series mostly up to 46 µM; also: nearly all actives have a fitted effect of over 60% in size
Summary of the method: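 Nrf2 activity is the BugLite luminescence, read 15 min after reagent at room temperature, following CellTiter-Fluor cytotoxicity readout (30 min, 37C). Compound titrations were applied for 18-24 h to 5000 A549 ARE_Fluc cells/well in 5% FBS OPTI-MEM.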
Potency is read from the fitted curve at half-maximal effect.

Question: With O=C1c2ccccc2C(=O)N1c1ccncc1 as the molecule, how does the Potency read?
Answer: The Potency was “inactive”.

Question: With O=C(C[C@@H]1C/C=C\C[C@@H](Cc2ccc(F)cc2)C(=O)OC[C@@H](Cc2ccccc2)NC1=O)N[C@H](CO)Cc1ccccc1 as the molecule, how does the Potency read?
Answer: Its Potency is “inactive”.

Question: With COc1cc(NC(=O)c2ccccc2)c(OC)cc1NC(=O)Cc1ccc(Br)cc1 as the molecule, how does the Potency read?
Answer: Its Potency is inconclusive: 0.461 µM [falling, full curve].

Question: For CCCCN(C)CCNC(=O)c1cc2cc3ccc(OC)cc3nc2o1, which Potency is on record?
Answer: The Potency was “inactive”.

Question: For O=C(NCCN1CCCC1)C1COc2ccccc2O1 (stereo not drawn), which Potency is on record?
Answer: The Potency was inconclusive: 18.4 µM [activator, partial curve, poor fit].

Question: For N=c1c2c(-c3ccccc3)c(-c3ccccc3)n(Cc3ccccc3)c2ncn1CCCO, which Potency is on record?
Answer: The Potency was inconclusive: 18.4 µM [falling, single point].

Question: Which Potency does the source give for CC1CC(=O)N(CC(=O)NCc2ccc3c(c2)OCO3)c2ccccc2S1 (stereo not drawn) here?
Answer: The Potency was “inactive”.

Question: With CCOC(=O)c1sc(C)c2c1NC(C)(c1ccccc1)NC2=O (stereo not drawn) as the molecule, how does the Potency read?
Answer: Its Potency is “inactive”.

Question: For Cc1ccnc2nc(C(=O)OCC(=O)c3c[nH]c4ccccc34)nn12, which Potency is on record?
Answer: The Potency was “inactive”.

Question: With O=C(CN1CCc2ccccc21)Nc1ccc2c(c1)OCO2 as the molecule, how does the Potency read?
Answer: The Potency was inconclusive: 29.1 µM [activator, single point].

Question: For Cc1cccc(-c2noc(-c3ccc(F)cc3)n2)c1, which Potency is on record?
Answer: The Potency was inconclusive: 0.411 µM [activator, full curve].

Question: Which Potency does the source give for CC(c1ccco1)N(C(=O)c1ccccc1F)c1ccccn1 (stereo not drawn) here?
Answer: Its Potency is inconclusive: 11.6 µM [activator, partial curve, poor fit].

Question: With CCOc1ccc(C2C(C(=O)c3ccc(C)o3)=C(O)C(=O)N2c2nc(C)c(C(=O)OC)s2)cc1 (stereo not drawn) as the molecule, how does the Potency read?
Answer: The Potency was inconclusive: 6.51 µM [activator, partial curve, poor fit].

Question: With C=CCNC(=S)Nc1sc2c(c1C(=O)OCC)CC(C)(CC)OC2 (stereo not drawn) as the molecule, how does the Potency read?
Answer: The Potency was inconclusive: 32.6 µM [falling, partial curve, poor fit].

Question: Which Potency does the source give for O=C1C(=O)N(C2CCN(C(=O)c3ccccc3Cl)CC2)CCN1Cc1ccc(F)cc1 here?
Answer: The Potency was “inactive”.

Question: For Cc1ccc(NS(=O)(=O)c2ccc3[nH]c4c(c3c2)CCCC4)cc1N(C)C, which Potency is on record?
Answer: Its Potency is “inactive”.

Question: For CC(C)CC(COCc1cccc(C(F)(F)F)c1)N1CCN(C(=O)c2cccc(C(F)(F)F)c2)CCC1=O (stereo not drawn), which Potency is on record?
Answer: Its Potency is inconclusive: 18.4 µM [falling, partial curve, poor fit].

Question: For Cc1cccc(NC(=O)N2CCC(n3nnc4cc(C)ccc43)CC2)c1, which Potency is on record?
Answer: Its Potency is inconclusive: 20.6 µM [falling, single point].

Question: For O=C(Cc1ccc(F)cc1)N1CCC(CC2CC(c3cccc(Br)c3)=NO2)(C(=O)NCC2CCCCC2)CC1 (stereo not drawn), which Potency is on record?
Answer: Its Potency is inconclusive: 32.6 µM [falling, single point].

Question: For CC1CCN(S(=O)(=O)c2ccc3c(c2)N(CC(=O)NCCc2ccccc2)C(=O)CO3)CC1, which Potency is on record?
Answer: Its Potency is inconclusive: 11.6 µM [activator, partial curve, poor fit].

Question: For CC(C)Nc1nc(-c2ccccc2)nc(-n2ccnc2)n1, which Potency is on record?
Answer: The Potency was inconclusive: 11.6 µM [falling, partial curve, poor fit].

Question: Which Potency does the source give for O=C(NC(C(=O)N/N=C/c1c2ccccc2cc2ccccc12)c1n[nH]c(=O)c2ccccc12)c1ccccc1 (stereo not drawn) here?
Answer: The Potency was inconclusive: 14.6 µM [falling, partial curve].

Question: For Cc1ccc(CNC(=O)C2(S(=O)(=O)c3ccccc3)CC=CC2)cc1, which Potency is on record?
Answer: The Potency was inconclusive: 23.1 µM [activator, partial curve].

Question: For O=C(Nc1cnn(Cc2ccc(Cl)cc2)c1)c1ccc([N+](=O)[O-])cc1, which Potency is on record?
Answer: The Potency was inconclusive: 29.1 µM [falling, single point].

Question: Which Potency does the source give for Cc1c(C#N)c2ncnc(-c3ccccc3)c2n1-c1ccccc1 here?
Answer: Its Potency is inconclusive: 2.06 µM [falling, full curve].

Question: With CCC(C(=O)NC1CCCC1)N(Cc1ccco1)C(=O)Cn1nnc(-c2ccc(C)cc2)n1 (stereo not drawn) as the molecule, how does the Potency read?
Answer: Its Potency is inconclusive: 20.6 µM [falling, single point].

Question: For Cc1ccccc1OCC(=O)OCC(=O)c1ccc(OCc2ccccc2)cc1, which Potency is on record?
Answer: Its Potency is inconclusive: 3.66 µM [activator, full curve, poor fit].

Question: With C=CCC[C@@H](Cc1ccc(F)cc1)C(=O)OC[C@@H](NC(=O)[C@@H](CC=C)CC(=O)N[C@@H](CO)Cc1ccccc1)C(C)(C)C as the molecule, how does the Potency read?
Answer: The Potency was active: 20.6 µM.

Question: For COc1ccc(NC(=O)c2cc(-c3ccco3)on2)cc1, which Potency is on record?
Answer: The Potency was inconclusive: 23.1 µM [activator, partial curve].

Question: Which Potency does the source give for CCCNC(=O)CN1CCN(c2cc3ccccc3c(Cl)n2)CC1 here?
Answer: Its Potency is “inactive”.

Question: Which Potency does the source give for COc1ccc(C2=NNC(=Nc3cc(S(=O)(=O)N(C)C)ccc3C)SC2)c(OC)c1 here?
Answer: Its Potency is inconclusive: 29.1 µM [falling, single point].

Question: Which Potency does the source give for COC(=O)c1c(NC(=O)COC(=O)c2ccc(Cl)nc2)sc(C)c1C here?
Answer: Its Potency is “inactive”.

Question: With Cc1ccc(CCNS(=O)(=O)c2c(C)nc3sc(C)c(C)n3c2=O)cc1 as the molecule, how does the Potency read?
Answer: The Potency was “inactive”.

Question: Which Potency does the source give for COc1ccc(C(=O)Nc2sc3c(c2C(=O)NCc2ccco2)CCCC3)cc1OC here?
Answer: Its Potency is “inactive”.

Question: For Cc1ccc(C)c(OCCn2c(CCNC(=O)C3CCCCC3)nc3ccccc32)c1, which Potency is on record?
Answer: Its Potency is inconclusive: 13 µM [activator, partial curve, poor fit].

Question: Which Potency does the source give for CCCn1c(CCC(=O)Nc2ccc(OCC)cc2)nc2cccnc21 here?
Answer: The Potency was inconclusive: 0.461 µM [falling, partial curve, poor fit].

Question: Which Potency does the source give for CCOC(=O)C1=CN(Cc2ccco2)S(=O)(=O)NC1c1ccc(F)c(Cl)c1 (stereo not drawn) here?
Answer: Its Potency is “inactive”.

Question: Which Potency does the source give for Cn1c(=O)c2[nH]c(CCCCCCCc3nc4ccccc4[nH]3)nc2n(C)c1=O here?
Answer: Its Potency is active: 16.4 µM.

Question: For CCOC(=O)N1CCN(C(=O)c2cc(COc3ccc(Cl)cc3OC)on2)CC1, which Potency is on record?
Answer: The Potency was inconclusive: 29.1 µM [falling, single point].

Question: For Cc1nc(C)c(C(=O)NNS(=O)(=O)c2ccc3ccccc3c2)s1, which Potency is on record?
Answer: The Potency was active: 9.2 µM.

Question: With COc1cc(N)c(Br)cc1C(=O)O as the molecule, how does the Potency read?
Answer: Its Potency is inconclusive: 3.26 µM [activator, single point].

Question: With CC1CCN(S(=O)(=O)c2cccc(C(=O)N3CCN(c4ccc(F)cc4)CC3)c2)CC1 as the molecule, how does the Potency read?
Answer: The Potency was inconclusive: 16.4 µM [falling, single point].

Question: For CCOC(=O)c1c(C)oc2nc(C)nc(NCc3ccc(F)cc3)c12, which Potency is on record?
Answer: The Potency was inconclusive: 29.1 µM [activator, single point].
